Read-outs that look alike come from different tables or passages of the source. The name of at least one read-out is uncertain.
Test system: chick chorioallantoic membrane (CAM) vasculature

For `CC(=O)O[C@H]1C(=O)[C@@]2(C)[C@H]([C@H](OC(=O)c3ccccc3)[C@]3(O)C[C@H](OC(=O)[C@H](O)[C@@H](NC(=O)c4ccccc4)c4ccccc4)C(C)=C1C3(C)C)[C@]1(OC(C)=O)CO[C@@H]1C[C@@H]2O` [paclitaxel], which Inhibition/n (4PCL:1MePEG flakes (1 mg), 20%) is on record?
The Inhibition/n was 10/13.

What about the Inhibition/n (20% gelatin:60% PCL paste (3 mg), 20%) of the same molecule?
Its Inhibition/n is 5/6.

And the Inhibition/n (PCL paste (3 mg), 0.10% (0.1%))?
Its Inhibition/n is 1/8.

And the Inhibition/n (PCL paste (3 mg), 0.25%)?
Its Inhibition/n is 5/7.

And the Inhibition/n (PCL paste (3 mg), 1%)?
Its Inhibition/n is 8/8.

And the Inhibition/n (PCL paste (3 mg), 2%)?
The Inhibition/n was 10/10.

What about the Inhibition/n (PCL paste (3 mg), 5%) of the same molecule?
The Inhibition/n was 10/10.

And the Inhibition/n (PCL paste (3 mg), 10%)?
The Inhibition/n was 9/9.

And the Inhibition/n (PCL paste (3 mg), 20%)?
Its Inhibition/n is 6/6.

And the Inhibition/n (PCL:MePEG paste (3 mg), 20%)?
The Inhibition/n was 6/9.

And the Inhibition/n (cyclodextrin solution (10 ul), 10%)?
The Inhibition/n was 5/5.

What about the Inhibition/n (gelatin (1 mg), 20%) of the same molecule?
Its Inhibition/n is 17/17.

What about the Inhibition/n (methylcellulose (10 ul), 0.25 ug) of the same molecule?
The Inhibition/n was 2/11.

What about the Inhibition/n (methylcellulose (10 ul), 0.5 ug) of the same molecule?
The Inhibition/n was 6/11.

And the Inhibition/n (methylcellulose (10 ul), 1 ug)?
Its Inhibition/n is 6/15.

What about the Inhibition/n (methylcellulose (10 ul), 5 ug) of the same molecule?
Its Inhibition/n is 20/27.

What about the Inhibition/n (methylcellulose (10 ul), 10 ug) of the same molecule?
Its Inhibition/n is 16/21.

And the Inhibition/n (methylcellulose (10 ul), 30 ug)?
The Inhibition/n was 31/31.

What about the Inhibition/n (microspheres (EVA), 0.6%) of the same molecule?
The Inhibition/n was 2/2.

What about the Inhibition/n (microspheres (mucoadhesive), 20%) of the same molecule?
Its Inhibition/n is 7/7.

And the Inhibition/n (ophthalmic microsphere suspension (15 ul), 10%)?
The Inhibition/n was 4/4.

And the Inhibition/n (ophthalmic suspension (1 × 15 ul), 0.3%)?
Its Inhibition/n is 15/15.

What about the Inhibition/n (ophthalmic suspension (2 × 10 ul), 0.3%) of the same molecule?
Its Inhibition/n is 1/12.

And the Inhibition/n (ophthalmic suspension (2 × 15 ul), 0.3%)?
The Inhibition/n was 3/3.

And the Inhibition/n (stent coating (˜1 mg), 2.5%)?
The Inhibition/n was 5/5.

What about the Inhibition/n (stent coating (˜1 mg), 10%) of the same molecule?
Its Inhibition/n is 1/1.

What about the Inhibition/n (stent coating (˜1 mg), 33%) of the same molecule?
The Inhibition/n was 3/3.

What does the source list for `C[C@]12CC[C@@H]3c4ccc(OC(=O)N(CCCl)CCCl)cc4CC[C@H]3[C@@H]1CC[C@@H]2OP(=O)(O)O` [estramustine sodium phosphate]?
Inhibition/n (PCL paste (3 mg), 5%): 0/6; Inhibition/n (PCL paste (3 mg), 10%): 0/6

Reference: patent publication US6689803B2, “Compositions and methods for treating surgical adhesions” (Angiotech Pharmaceuticals, Inc., priority 1996, dated 2004)
